{"source": "paper PMC12036661", "key": {"[1]": {"biological_target": "T1, ephrin-B1S (human) (UniProt P98172)", "T1 sequence": "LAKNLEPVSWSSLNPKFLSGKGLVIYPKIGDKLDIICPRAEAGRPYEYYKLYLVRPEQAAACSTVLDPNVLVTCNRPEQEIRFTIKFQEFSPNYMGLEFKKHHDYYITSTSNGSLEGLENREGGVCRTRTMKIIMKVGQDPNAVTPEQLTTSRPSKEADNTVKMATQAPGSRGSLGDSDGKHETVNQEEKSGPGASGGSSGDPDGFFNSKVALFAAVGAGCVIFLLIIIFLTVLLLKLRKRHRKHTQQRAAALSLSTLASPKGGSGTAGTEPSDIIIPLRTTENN", "assay": "pull-down; the same EphB2-Fc precipitation from 0.5% NP40 lysates of co-transfected HEK293T cells; Western blot; pairs of ephrin-B1S (captured through EphB2-Fc) with a co-expressed protein"}, "[2]": {"biological_target": "T1, ephrin-B1S (human)", "assay": "co-IP; 0.5% NP40 lysates of co-transfected HEK293T cells precipitated with anti-CD44, anti-ephrin-B1, anti-FGFR1 or anti-FGFR4 (0.5–1 μg) and protein G beads for 2 h, 3 washes in cold PBS; Western blot"}, "[3]": {"biological_target": "T2, ephrin-B1 (human, wild type) (human) (UniProt P98172)", "T2 sequence": "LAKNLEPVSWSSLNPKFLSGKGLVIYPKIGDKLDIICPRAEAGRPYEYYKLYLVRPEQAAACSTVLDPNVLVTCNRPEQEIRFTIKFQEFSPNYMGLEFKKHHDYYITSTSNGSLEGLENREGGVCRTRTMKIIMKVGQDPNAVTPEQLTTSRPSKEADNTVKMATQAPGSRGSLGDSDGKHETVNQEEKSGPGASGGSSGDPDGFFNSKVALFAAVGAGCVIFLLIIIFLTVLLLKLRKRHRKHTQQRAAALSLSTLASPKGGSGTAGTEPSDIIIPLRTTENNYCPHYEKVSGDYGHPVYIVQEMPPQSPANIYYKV", "assay": "pull-down; 35S-sulfate-labelled HEK293T cells co-expressing ephrin-B1 and CD44V3–10; lysate precipitated with EphB2-Fc on protein G beads, released by boiling with 0.5% SDS, then re-precipitated with anti-CD44; SDS-PAGE and phosphorimager"}, "[4]": {"biological_target": "CD44V3–10", "assay": "co-IP; 0.5% NP40 lysates of co-transfected HEK293T cells precipitated with anti-CD44, anti-ephrin-B1, anti-FGFR1 or anti-FGFR4 (0.5–1 μg) and protein G beads for 2 h, 3 washes in cold PBS; Western blot"}}, "note": "No constants are given. Whether binding was seen depends on the method and setting. Binding seen in cells or lysates may run through a third protein. Binding calls can cover weak binding; strength is not graded here."}
{"molecule": "CD44V3–10", "values": [{"measurement": "binding", "setting": "[1]", "result": "binds"}, {"measurement": "binding", "setting": "[2]", "result": "binds"}, {"measurement": "binding", "setting": "[3]", "result": "binds"}]}
{"molecule": "ephrin-B1S (domain or fragment, UniProt P98172 28-312) LAKNLEPVSWSSLNPKFLSGKGLVIYPKIGDKLDIICPRAEAGRPYEYYKLYLVRPEQAAACSTVLDPNVLVTCNRPEQEIRFTIKFQEFSPNYMGLEFKKHHDYYITSTSNGSLEGLENREGGVCRTRTMKIIMKVGQDPNAVTPEQLTTSRPSKEADNTVKMATQAPGSRGSLGDSDGKHETVNQEEKSGPGASGGSSGDPDGFFNSKVALFAAVGAGCVIFLLIIIFLTVLLLKLRKRHRKHTQQRAAALSLSTLASPKGGSGTAGTEPSDIIIPLRTTENN", "values": [{"measurement": "binding", "setting": "[4]", "result": "binds"}]}
